Paper doi:10.1101/746677
These are yes or no findings as the source states them, for the method shown. In cells and extracts the contact can be indirect. Some entries that bind do so weakly or less than the wild type. Tags and fused reporters may be left off the sequences shown.

By UniProt entry, the sequences of proteins in these tests, tags left out.
UniProt P49407: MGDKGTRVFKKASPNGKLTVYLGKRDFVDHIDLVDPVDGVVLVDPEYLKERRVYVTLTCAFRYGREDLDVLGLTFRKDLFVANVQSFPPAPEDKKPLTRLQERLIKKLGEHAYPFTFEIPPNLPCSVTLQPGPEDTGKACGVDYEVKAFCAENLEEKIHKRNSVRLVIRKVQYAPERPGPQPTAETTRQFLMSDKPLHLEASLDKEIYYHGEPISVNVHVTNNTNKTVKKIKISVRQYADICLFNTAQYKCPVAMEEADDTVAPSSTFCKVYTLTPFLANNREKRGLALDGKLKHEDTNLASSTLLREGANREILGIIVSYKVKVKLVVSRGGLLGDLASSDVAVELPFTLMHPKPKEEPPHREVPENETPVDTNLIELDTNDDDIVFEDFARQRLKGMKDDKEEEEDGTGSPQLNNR
UniProt P32121: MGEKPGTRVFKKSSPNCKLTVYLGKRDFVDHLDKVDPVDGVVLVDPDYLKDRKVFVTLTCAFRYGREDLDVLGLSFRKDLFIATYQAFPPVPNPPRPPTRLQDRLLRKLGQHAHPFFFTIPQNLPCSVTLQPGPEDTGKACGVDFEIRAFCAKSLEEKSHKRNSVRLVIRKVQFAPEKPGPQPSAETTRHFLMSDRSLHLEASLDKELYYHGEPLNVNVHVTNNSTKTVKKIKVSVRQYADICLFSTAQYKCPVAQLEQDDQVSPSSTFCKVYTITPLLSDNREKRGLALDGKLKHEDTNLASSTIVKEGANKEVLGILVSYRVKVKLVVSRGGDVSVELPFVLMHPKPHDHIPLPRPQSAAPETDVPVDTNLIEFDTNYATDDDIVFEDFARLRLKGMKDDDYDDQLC

Molecular target: T1, c-terminally YFP tagged PAR4 (Proteinase-Activated Receptor 4) (UniProt Q96RI0)
T1 sequence: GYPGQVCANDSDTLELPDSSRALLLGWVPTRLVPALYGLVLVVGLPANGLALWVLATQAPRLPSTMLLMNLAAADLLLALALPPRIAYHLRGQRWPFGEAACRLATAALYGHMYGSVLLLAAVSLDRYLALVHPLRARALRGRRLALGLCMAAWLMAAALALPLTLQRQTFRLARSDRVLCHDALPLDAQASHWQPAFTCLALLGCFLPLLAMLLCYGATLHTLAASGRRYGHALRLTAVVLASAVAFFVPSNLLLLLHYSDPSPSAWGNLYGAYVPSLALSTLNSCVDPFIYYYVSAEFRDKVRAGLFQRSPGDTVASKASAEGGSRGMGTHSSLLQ
Test: FRET or BRET

Substance	binding
Renilla Luciferase (Rluc) tagged β-arrestin 1 (from UniProt P49407 1-418)	binds
Renilla Luciferase (Rluc) tagged β-arrestin 2 (from UniProt P32121 1-409)	binds
